Measured values published in publication PMC12040169 (PLOS Biology, 2025).
The other results are listed elsewhere or left out.

system: T1, CTL2-GFP (C. trachomatis L2/434/Bu, GFP-expressing); design: species or system HeLa; Intracellular C. trachomatis growth in HeLa cells, bulk GFP fluorescence relative to DMSO; conditions: bulk GFP, single well; 28.5 h, 10 µM; inhibitor
T1 construct: L2/434/Bu, GFP-expressing

| Compound | % of control remaining |
| --- | --- |
| CC(C)(C)OC(=O)N1CCC(Oc2nccc3c2ccn3Cc2ccc(S(C)(=O)=O)cc2)CC1 [CBK132881] | 97.887% |
| Cc1cc(C)cc(OCC(=O)NNC(=O)CN2C(=O)c3ccccc3C2=O)c1 [CBK262394] | 132.702% |
| O=[N+]([O-])c1ccc(S(=O)(=O)Nc2nnc(Cc3ccc(Cl)cc3)s2)cc1 [CBK200046] | 116.559% |
| Cc1ncsc1CCOc1nc2ccccc2nc1NC(C)C [CBK115736] | 81.8303% |
| NS(=O)(=O)c1ccc(NC(=S)Nc2nn(Cc3ccc(Cl)c(Cl)c3)cc2Br)cc1 [CBK267082] | 80.8708% |
| Cc1ccnc(NC(=O)c2ccccc2)c1 [CBK004031] | 123.489% |
| COc1ccc(-c2nnc(SCC(=O)NC(=O)c3ccccc3)n2CC(C)C)cc1 [CBK297527] | 140.693% |
| O=C(c1ccc(-c2nccnc2NCc2cccs2)cc1)N1CCOCC1 [CBK037059] | 105.57% |
| O=S(=O)(Cc1ccccc1)NCc1ccccn1 [CBK262241] | 114.573% |
| CS(=O)(=O)c1ccc(Cn2cc(CN3CCC(Sc4ccccn4)CC3)nn2)cc1 [CBK149475] | 111.476% |
| O=[N+]([O-])c1ccccc1S(=O)(=O)NCCSCc1ccc(Cl)c(Cl)c1 [CBK058810] | 98.0603% |
| Cc1nc2c(OCC3CCCCC3)cccn2c1N(C)CC1CC1 [CBK147279] | 52.8208% |
| COc1cc(-c2cc(-c3ccccc3)nc(SCC(=O)O)c2C#N)cc(OC)c1OC [CBK131867] | 94.6237% |
| CN(c1ccc(C(=O)Nc2cccc(C(=O)O)c2)cc1)S(=O)(=O)c1ccccc1 [CBK265729] | 199.636% |
| Cc1ccc2oc3c(c(=O)c2c1)C(c1ccc(OCC(N)=O)cc1)N(Cc1ccc2c(c1)OCO2)C3=O (stereo not shown) [CBK267189] | 169.542% |
| Cc1nc(S(=O)(=O)Cc2nccn2C)n(CC2CCCO2)c1C (stereo not shown) [CBK304012] | 105.893% |
| Cc1cc(C)n(-c2ccc3nnc(CCCC(=O)O)n3n2)n1 [CBK307630] | 119.108% |
| O=C(c1cc(F)cc(F)c1)N1CCC(c2n[nH]c3ncccc23)CC1 [CBK284909] | 118.39% |
| Cc1cc(=O)oc2cc(OC(C)C(=O)Nc3sc4c(c3C(N)=O)CCCC4)ccc12 (stereo not shown) [CBK268050] | 99.592% |
| CC(C)Nc1nccnc1Sc1cccc(O)c1 [CBK093725] | 89.4559% |
| c1ccc2c(c1)CCC[C@H]2Oc1cncc(N2CCNCC2)n1 [CBK172388G] | 126.056% |
| O=[N+]([O-])c1ccccc1NC1OCC(O)C(O)C1O (stereo not shown) [CBK262032] | 118.143% |
| Cc1cccn2c(=O)cc(CN3CCc4c(nc(C5CC5)n4C)C3)nc12 [CBK305256] | 85.8542% |
| CN(C)c1ccc(-n2ccn(S(=O)(=O)c3ccc4ccccc4c3)c2=O)cc1 [CBK106607] | 174.932% |
| C[N+]1([O-])CCN(c2nccn(CCOc3cc(F)c(F)cc3F)c2=O)CC1 [CBK081593] | 89.1319% |
| CC(C)c1ccc(/C=C/C(=O)N[C@H]2CC[C@H](O)CC2)cc1 [CBK149644] | 107.817% |
| O=C(c1nccs1)C1CCN(C(=O)c2ccccc2F)CC1 [CBK284174] | 123.006% |

Exported as tab-separated lines: part of the list above.
Compound	% of control remaining
CN(c1ccc(C(=O)Nc2cccc(C(=O)O)c2)cc1)S(=O)(=O)c1ccccc1 [CBK265729]	199.636%
Cc1ccc2oc3c(c(=O)c2c1)C(c1ccc(OCC(N)=O)cc1)N(Cc1ccc2c(c1)OCO2)C3=O (stereo not shown) [CBK267189]	169.542%
Cc1nc(S(=O)(=O)Cc2nccn2C)n(CC2CCCO2)c1C (stereo not shown) [CBK304012]	105.893%
Cc1cc(C)n(-c2ccc3nnc(CCCC(=O)O)n3n2)n1 [CBK307630]	119.108%

Continued.

| Compound | % of control remaining |
| --- | --- |
| O=C(NC(Cc1ccccc1)C(O)c1nccs1)C1CC=CCC1 (stereo not shown) [CBK284763] | 99.0311% |
| C=C(C)CN1CCN(C(=O)C(CC)Oc2ccccc2F)CC1 (stereo not shown) [CBK282935] | 107.152% |
| CN(C)CCN(Cc1cccs1)Cc1cc(Cl)ccc1O [CBK282847] | 97.0144% |
| COc1ccc(CCNC(=O)CN2CCCCC2C)cc1 (stereo not shown) [CBK304827] | 101.254% |
| CN(CC(=O)Nc1ccn(Cc2cccnc2)n1)c1ccc(C#N)cn1 [CBK306105] | 87.7812% |
| NCCC(=O)N(CCc1cc(C(F)(F)F)cc(C(F)(F)F)c1)c1ccc(Oc2ccccc2)cc1 [CBK002998T] | 114.276% |
| O=C(Cc1cc(F)cc(F)c1F)Nc1ccc2[nH]ccc2c1 [CBK159686] | 135.291% |
| CCCS(=O)(=O)N1CCN(Cc2cc(Br)ccc2O)CC1 [CBK264165G] | 125.907% |
| CN1CCC(=NNC(=O)CCSc2ccc(Cl)cc2)CC1 [CBK020372] | 178.08% |
| Cc1ccccc1-n1c(=O)cc(N2CCN(c3ccc(F)cc3)CC2)[nH]c1=O [CBK287508] | 155.706% |
| COc1ccc(C(=O)CCCN2CC3CCC(NC(=O)Nc4ccc(F)c(F)c4)CC3C2)cc1 (stereo not shown) [CBK083514T] | 77.7409% |
| CN(C)CCNC(=O)c1cccc(-c2cncc(Nc3cccc(Cl)c3)n2)c1 [CBK065229] | 118.427% |
| CCOC(=O)C1CCN(S(=O)(=O)c2ccc(NC(C)=O)c(Cl)c2)CC1 [CBK043748] | 103.231% |
| Cc1ccccc1-c1ccccc1CC1(C(N)=O)CCN(C(=O)CCc2ccccc2)CC1 [CBK285725] | 123.153% |
| CC(C)CNC(=S)NNC(=O)CC(C)O (stereo not shown) [CBK266921] | 139.666% |
| CC(C)N1CC[C@@H]2[C@H]1C(=O)NC[C@H](CCC(=O)NCc1ccccc1)N2C [CBK289027] | 139.839% |
| Nc1nc(CCC(=O)N2Cc3cnn(Cc4ccc(F)cc4)c3C2)cs1 [CBK307019] | 101.496% |
| O=C1CC2(CCN(C(=O)N3CCCC3)CC2)Oc2ccc(F)cc21 [CBK283597] | 144.272% |
| Fc1ccc(Oc2nccnc2N2CCN(Cc3ccc(Cl)c(Cl)c3)CC2)cc1 [CBK083007T] | 138.533% |
| O=C(C1CC2C=CC1C21CC1)N1CCN(c2nccs2)CC1 (stereo not shown) [CBK281640] | 124.722% |
| O=C(NCCCc1ccccc1)c1cccc(S(=O)(=O)N2CCCC2)c1 [CBK305024] | 85.9511% |
| O=C(c1ccco1)N1CCN(C(=O)C(c2ccccc2)c2ccccc2)CC1 [CBK144462] | 99.3491% |
| Cc1nn(C)cc1CNC(=O)c1cc2ncc(Br)cn2n1 [CBK304336] | 92.9436% |
| CC1CCCC(C)N1C(=O)Cn1ncc2cccn2c1=O (stereo not shown) [CBK283680] | 106.263% |
| O=C(NCCCn1ccnc1)c1cccnc1-c1nc2ccccc2s1 [CBK269939] | 117.815% |
| CCCNc1nccnc1-c1ccc(F)c(Cl)c1 [CBK037100] | 152.767% |
| COc1ccc(Cl)cc1CN(C)C(=O)c1cc(C(C)C)n2ncnc2n1 [CBK307331] | 134.793% |

2 entries drawn at random from the list so far, as already listed:

| Compound | % of control remaining |
| --- | --- |
| Cc1ncsc1CCOc1nc2ccccc2nc1NC(C)C [CBK115736] | 81.8303% |
| CCOC(=O)C1CCN(S(=O)(=O)c2ccc(NC(C)=O)c(Cl)c2)CC1 [CBK043748] | 103.231% |

The listing continues:

| Compound | % of control remaining |
| --- | --- |
| Cc1cc(C(=O)NC(Cc2ccncc2)C2CC(O)C2)c(C)o1 (stereo not shown) [CBK307181] | 149.26% |
| O=C(Nc1ccccc1C(=O)N1CCCC1)c1ccccc1CCc1ccccc1 [CBK268608] | 103.397% |
| CC(C)(C)c1ccc(-n2cc(-c3ccc(Cl)cc3)nn2)cc1 [CBK113031] | 106.237% |
| COC(=O)c1cc(C)nc2sc(C)c(N)c12 [CBK115343] | 119.051% |
| CCCN1CCC(N2CCN(CCO)CC2)CC1 [CBK261920] | 100% |
| CC(C)(O)C#Cc1ccc(C(=O)NCCC(=O)O)s1 [CBK267704] | 121.419% |
| CCCn1cc(NC(=O)C2(c3ccccc3)CCC2)ccc1=O [CBK306237] | 114.659% |
| O=C(NC(=O)c1ccc(F)c(Cl)c1)Nc1nnc(C(F)(F)F)s1 [CBK076830] | 89.1534% |
| COC[C@H](C)Nc1ccc(C(=O)N2CCC(N3CCOCC3)CC2)cn1 [CBK306917] | 137.316% |
| CN(C)CCSc1cc(N2CCCC2)ncn1 [CBK105295] | 103.343% |
| CCc1nc2ccc(C(=O)NCc3cccs3)cn2c1N(C)CC [CBK145492] | 92.2219% |
| Nc1nc2c(nc(SCCc3ccccc3)n2C2OC(CO)C(O)C2O)c(=O)[nH]1 (stereo not shown) [CBK268686] | 109.564% |
| O=C(O)c1cccn1-c1cc(Cl)cc(Cl)c1 [CBK286932] | 124.222% |
| COCC(=O)N1CCN2C(=O)c3cc(-c4ccccc4F)ccc3NC(=O)[C@H]2C1 [CBK289587] | 142.523% |
| c1ccc(Nc2nc(-c3ccc(N4CCOCC4)cc3)cn3ccnc23)cc1 [CBK066222] | 60.5084% |
| COc1cccn(CC(=O)N(C)CCc2scnc2C)c1=O [CBK306726] | 95.0725% |
| Cc1ccc(Nc2c([N+](=O)[O-])nn(-c3ccccc3)[n+]2[O-])cc1F [CBK268414] | 113.65% |
| c1coc(-c2cc3ncc4c(n3n2)CC2CCC4N2)c1 (stereo not shown) [CBK284381] | 107.375% |
| CC1(C)CCCN(Cc2nnnn2-c2ccc(S(C)(=O)=O)cc2)C1 [CBK306181] | 112.191% |
| O=C(NCCc1ccc(Cl)cc1)C1(Cc2ccc(-c3cccnc3)cc2)CCOCC1 [CBK285589] | 60.7886% |
| COCCCN(Cc1ccccn1)Cc1c(F)cccc1F [CBK282959] | 116.566% |
| Oc1ccccc1CNC1(Cc2cc(-c3ccc(F)cc3)on2)COC1 [CBK289655] | 142.163% |
| CC(=O)N1CCN(c2c(-c3ccccc3)nnc3ccccc23)CC1 [CBK066889] | 131.628% |
| Nc1nnc(SCC(=O)N2CCN(C(c3ccccc3)c3ccccc3)CC2)s1 [CBK266320] | 112.733% |
| CC(=O)OC1CCn2c1nc1cc(C(F)(F)F)ccc12 (stereo not shown) [CBK115367] | 126.551% |
